Structures are written as SMILES. ± gives the standard deviation of the averaged measurements. This is one part of the list.

The test addresses T1, UniProt O75934.
T1 sequence (whole entry): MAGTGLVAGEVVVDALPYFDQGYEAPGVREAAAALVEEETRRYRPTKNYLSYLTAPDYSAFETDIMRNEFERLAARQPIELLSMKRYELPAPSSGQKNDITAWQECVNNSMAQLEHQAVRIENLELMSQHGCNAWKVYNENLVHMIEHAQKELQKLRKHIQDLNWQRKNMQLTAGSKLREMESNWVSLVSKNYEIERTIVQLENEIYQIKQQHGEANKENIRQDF
The test can be described thus: NP40-soluble protein abundance relative to vehicle (solubility fold change) (ratio); higher = more soluble protein in presence of GTP. The method, then:
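Solubility proteome profiling in Jurkat crude lysate. Lysate was treated with Mg-GTP (0.1-10 mM) for 10 min at room temperature and 3 min at 37 °C, then solubilised with 0.8% NP40 and benzonase, followed by ultracentrifugation. Proteins were quantified by TMT10 LC-MS/MS; the value is the NP40-soluble abundance relative to the NP40-processed vehicle, from 3 independent experiments.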

For the molecule `Nc1nc2c(ncn2[C@@H]2O[C@H](COP(=O)(O)OP(=O)(O)OP(=O)(O)O)[C@@H](O)[C@H]2O)c(=O)[nH]1` [guanosine triphosphate], the NP40-soluble protein abundance was 0.955 ± 0.048 (concentration: 0.1mM); 0.97 ± 0.034 (concentration: 0.5mM); 1.04 ± 0.071 (concentration: 1mM); 1.15 ± 0.019 (concentration: 2mM); 1.12 ± 0.051 (concentration: 4mM); 1.168 ± 0.0088 (concentration: 6mM). Further, the NP40-soluble protein abundance (concentration: 8mM) was found to be 1.14 ± 0.05 and the NP40-soluble protein abundance (concentration: 10mM) was 1.35 ± 0.15.

These data come from the supplement of paper PMC6411743.
